Many values rest on one well or one pass, so single values are uncertain.

By UniProt entry, the sequences of proteins in these tests, tags left out. Where a name states a change or a piece, a line headed by the entry shows the natural chain unless it says otherwise.
UniProt O00303, whole entry: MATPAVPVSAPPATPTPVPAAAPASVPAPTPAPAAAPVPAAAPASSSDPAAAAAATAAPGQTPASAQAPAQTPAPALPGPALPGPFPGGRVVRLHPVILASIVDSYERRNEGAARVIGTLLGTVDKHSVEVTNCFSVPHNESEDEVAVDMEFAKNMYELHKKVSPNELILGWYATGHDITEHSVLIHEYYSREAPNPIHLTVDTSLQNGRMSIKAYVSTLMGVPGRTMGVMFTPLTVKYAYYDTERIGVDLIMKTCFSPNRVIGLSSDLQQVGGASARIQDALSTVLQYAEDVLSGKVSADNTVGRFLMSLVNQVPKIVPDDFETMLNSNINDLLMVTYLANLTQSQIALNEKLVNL
UniProt Q96MH7: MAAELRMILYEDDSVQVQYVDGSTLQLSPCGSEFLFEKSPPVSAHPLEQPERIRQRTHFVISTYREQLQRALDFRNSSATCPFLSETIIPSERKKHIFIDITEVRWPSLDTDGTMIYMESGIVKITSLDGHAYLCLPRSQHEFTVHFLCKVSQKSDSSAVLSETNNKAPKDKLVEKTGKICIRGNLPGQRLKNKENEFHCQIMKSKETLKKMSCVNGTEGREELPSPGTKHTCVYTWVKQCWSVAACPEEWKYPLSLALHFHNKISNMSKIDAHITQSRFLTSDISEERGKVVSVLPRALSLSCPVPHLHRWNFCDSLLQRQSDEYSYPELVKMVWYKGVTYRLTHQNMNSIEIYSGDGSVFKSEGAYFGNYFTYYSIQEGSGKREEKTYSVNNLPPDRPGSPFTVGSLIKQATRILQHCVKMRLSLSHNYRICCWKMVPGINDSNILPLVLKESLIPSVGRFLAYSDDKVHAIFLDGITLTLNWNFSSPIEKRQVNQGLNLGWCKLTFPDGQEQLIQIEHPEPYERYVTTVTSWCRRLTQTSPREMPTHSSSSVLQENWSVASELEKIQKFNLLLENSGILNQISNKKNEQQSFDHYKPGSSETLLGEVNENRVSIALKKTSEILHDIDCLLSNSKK
UniProt Q4KMP7: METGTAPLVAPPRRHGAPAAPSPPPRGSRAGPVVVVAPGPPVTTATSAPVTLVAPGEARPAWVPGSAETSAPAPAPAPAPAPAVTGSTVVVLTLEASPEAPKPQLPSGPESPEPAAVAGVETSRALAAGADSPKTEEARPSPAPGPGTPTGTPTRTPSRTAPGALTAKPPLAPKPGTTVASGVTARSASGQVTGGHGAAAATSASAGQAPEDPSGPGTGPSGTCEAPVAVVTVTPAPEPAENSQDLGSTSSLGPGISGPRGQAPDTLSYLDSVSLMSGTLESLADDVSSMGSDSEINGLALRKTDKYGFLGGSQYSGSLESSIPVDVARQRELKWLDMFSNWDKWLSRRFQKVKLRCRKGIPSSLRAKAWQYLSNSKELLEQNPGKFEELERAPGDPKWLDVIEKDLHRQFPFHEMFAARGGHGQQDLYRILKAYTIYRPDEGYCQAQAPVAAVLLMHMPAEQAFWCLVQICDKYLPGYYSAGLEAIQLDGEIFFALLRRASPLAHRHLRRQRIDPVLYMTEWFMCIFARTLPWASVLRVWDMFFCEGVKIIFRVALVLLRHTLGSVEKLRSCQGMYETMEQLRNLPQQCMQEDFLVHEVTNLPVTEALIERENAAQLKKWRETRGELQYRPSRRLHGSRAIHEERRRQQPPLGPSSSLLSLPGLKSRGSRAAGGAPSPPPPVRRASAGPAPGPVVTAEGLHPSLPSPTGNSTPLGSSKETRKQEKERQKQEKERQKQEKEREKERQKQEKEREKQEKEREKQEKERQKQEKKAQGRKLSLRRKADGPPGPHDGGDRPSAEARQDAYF
UniProt P24844: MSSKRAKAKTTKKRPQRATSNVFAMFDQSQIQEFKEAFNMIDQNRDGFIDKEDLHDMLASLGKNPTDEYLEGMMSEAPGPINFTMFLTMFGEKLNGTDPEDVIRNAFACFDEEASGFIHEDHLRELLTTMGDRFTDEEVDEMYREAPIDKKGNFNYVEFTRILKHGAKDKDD
UniProt Q9P2B4: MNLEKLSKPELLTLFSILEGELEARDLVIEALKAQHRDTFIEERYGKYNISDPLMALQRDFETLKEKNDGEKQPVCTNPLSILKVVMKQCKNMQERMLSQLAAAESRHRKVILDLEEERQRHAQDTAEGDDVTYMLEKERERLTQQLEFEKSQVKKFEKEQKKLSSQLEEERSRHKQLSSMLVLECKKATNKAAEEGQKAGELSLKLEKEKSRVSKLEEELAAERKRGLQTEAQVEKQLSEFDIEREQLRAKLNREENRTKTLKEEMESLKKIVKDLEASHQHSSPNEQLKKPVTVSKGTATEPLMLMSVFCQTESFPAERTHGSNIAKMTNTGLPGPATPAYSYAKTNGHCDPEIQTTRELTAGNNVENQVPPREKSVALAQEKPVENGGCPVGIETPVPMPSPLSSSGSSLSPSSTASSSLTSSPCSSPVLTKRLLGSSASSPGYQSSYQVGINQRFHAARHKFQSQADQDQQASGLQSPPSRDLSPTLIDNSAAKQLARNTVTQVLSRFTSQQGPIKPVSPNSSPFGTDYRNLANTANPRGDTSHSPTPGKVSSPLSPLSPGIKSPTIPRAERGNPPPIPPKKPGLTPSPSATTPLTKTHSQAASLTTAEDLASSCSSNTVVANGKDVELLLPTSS
UniProt P00367: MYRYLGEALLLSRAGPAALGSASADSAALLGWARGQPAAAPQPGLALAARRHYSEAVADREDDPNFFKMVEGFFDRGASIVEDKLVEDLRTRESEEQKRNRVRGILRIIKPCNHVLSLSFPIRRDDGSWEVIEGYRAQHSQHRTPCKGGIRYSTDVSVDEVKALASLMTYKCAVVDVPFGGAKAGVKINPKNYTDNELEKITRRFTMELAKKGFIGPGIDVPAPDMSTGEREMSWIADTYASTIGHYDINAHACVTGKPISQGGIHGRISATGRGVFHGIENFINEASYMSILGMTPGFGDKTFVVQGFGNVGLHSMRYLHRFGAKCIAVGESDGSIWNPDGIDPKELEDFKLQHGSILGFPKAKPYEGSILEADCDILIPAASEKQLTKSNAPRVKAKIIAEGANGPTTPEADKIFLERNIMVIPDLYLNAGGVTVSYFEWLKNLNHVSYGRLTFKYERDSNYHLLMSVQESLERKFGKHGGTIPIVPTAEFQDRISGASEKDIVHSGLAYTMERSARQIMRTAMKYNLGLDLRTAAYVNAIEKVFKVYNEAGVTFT
UniProt Q9UBD5: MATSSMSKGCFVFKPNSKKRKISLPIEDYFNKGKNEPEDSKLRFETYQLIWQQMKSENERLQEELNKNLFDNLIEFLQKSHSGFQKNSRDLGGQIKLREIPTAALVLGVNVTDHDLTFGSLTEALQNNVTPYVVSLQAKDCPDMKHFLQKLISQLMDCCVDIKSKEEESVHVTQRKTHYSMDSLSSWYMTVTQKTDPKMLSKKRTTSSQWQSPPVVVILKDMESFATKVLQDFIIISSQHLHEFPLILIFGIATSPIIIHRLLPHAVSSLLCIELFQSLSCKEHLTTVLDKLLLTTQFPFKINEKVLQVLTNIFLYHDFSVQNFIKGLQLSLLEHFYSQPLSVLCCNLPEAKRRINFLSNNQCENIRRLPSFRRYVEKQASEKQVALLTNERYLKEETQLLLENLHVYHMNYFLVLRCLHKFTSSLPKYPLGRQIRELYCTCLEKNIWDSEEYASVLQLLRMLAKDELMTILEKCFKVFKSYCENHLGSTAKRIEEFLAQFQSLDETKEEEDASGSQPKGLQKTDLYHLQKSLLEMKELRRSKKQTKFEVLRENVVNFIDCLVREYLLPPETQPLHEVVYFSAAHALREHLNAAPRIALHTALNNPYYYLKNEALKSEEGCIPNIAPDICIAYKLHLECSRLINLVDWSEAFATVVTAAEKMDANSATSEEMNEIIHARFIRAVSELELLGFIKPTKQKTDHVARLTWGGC
UniProt P24539: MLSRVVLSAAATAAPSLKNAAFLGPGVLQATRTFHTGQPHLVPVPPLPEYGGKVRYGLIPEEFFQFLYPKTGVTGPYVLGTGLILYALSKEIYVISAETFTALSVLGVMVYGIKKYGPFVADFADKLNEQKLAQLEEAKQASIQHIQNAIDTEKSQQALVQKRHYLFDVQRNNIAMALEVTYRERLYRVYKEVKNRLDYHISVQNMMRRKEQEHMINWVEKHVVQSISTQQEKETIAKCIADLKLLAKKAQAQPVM
UniProt Q9Y3F4: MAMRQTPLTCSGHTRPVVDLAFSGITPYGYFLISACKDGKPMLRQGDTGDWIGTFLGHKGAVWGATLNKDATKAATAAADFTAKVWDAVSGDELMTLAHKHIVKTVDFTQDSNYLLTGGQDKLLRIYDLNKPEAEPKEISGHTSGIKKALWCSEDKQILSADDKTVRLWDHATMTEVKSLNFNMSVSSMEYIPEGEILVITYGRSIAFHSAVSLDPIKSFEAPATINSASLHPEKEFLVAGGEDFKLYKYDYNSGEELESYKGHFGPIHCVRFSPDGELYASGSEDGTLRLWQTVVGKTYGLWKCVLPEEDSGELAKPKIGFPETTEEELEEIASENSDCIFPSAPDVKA
UniProt Q7Z7H5: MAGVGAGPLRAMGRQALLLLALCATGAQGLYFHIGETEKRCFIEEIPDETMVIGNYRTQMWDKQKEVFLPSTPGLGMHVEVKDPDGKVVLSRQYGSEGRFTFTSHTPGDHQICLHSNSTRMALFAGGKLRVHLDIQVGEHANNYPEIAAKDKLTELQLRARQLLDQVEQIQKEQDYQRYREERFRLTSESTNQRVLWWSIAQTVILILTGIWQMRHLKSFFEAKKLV
UniProt Q96P11: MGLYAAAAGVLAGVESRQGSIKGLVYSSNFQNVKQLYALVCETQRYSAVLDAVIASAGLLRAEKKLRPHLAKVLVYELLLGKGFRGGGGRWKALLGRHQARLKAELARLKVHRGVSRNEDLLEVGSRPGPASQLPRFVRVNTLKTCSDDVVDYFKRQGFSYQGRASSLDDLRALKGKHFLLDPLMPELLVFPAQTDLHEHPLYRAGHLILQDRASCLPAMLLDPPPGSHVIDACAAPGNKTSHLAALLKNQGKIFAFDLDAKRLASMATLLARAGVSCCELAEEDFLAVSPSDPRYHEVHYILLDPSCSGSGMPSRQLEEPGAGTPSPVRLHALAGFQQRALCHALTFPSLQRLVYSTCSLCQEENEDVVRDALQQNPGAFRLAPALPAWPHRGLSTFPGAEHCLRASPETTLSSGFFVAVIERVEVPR
UniProt P00352: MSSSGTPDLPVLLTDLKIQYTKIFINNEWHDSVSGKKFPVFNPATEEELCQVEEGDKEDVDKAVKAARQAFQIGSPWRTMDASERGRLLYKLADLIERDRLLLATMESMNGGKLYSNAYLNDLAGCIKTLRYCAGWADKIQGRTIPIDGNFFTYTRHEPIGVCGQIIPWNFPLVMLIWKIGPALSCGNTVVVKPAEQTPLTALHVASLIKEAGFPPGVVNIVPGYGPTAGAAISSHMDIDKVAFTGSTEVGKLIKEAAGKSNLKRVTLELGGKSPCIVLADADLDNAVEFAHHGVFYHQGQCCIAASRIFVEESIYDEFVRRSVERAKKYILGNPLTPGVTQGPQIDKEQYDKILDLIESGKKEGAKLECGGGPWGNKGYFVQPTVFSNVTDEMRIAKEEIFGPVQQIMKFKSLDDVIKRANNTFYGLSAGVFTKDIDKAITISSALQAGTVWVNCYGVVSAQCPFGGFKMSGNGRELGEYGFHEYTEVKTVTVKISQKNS
UniProt O43716: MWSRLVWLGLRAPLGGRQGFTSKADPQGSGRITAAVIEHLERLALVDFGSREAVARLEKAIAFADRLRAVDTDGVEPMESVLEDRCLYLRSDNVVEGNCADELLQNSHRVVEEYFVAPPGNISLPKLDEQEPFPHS
UniProt Q16666: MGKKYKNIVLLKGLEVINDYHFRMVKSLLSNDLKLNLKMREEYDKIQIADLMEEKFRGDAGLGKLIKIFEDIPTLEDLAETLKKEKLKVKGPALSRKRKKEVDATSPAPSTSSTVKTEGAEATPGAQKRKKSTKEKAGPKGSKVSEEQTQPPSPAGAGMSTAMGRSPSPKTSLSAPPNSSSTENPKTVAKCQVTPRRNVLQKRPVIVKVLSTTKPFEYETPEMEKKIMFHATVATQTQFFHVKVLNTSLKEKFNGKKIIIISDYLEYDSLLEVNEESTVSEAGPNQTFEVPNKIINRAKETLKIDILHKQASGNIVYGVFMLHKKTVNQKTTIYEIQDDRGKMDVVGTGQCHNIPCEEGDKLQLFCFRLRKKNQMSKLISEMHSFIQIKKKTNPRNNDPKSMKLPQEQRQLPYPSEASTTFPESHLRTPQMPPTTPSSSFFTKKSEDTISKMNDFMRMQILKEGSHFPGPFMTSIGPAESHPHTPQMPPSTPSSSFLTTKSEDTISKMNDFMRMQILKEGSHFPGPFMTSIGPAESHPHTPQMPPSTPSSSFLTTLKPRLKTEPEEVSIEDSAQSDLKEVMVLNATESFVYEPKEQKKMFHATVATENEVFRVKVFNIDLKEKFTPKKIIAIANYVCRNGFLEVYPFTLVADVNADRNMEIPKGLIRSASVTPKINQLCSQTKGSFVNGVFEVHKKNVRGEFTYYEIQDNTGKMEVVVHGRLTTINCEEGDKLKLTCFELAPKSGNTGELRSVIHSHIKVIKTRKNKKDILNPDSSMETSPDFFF

Compound in the assay: [O-][N+](C(C1=C(C(O)=C2)NC(C(C=C3)=CC=C3Cl)C4C1C=CC4)=C2Cl)=O
Kind of assay: melting temperature shift (compound 7 minus DMSO); higher = compound stabilises the protein. The note with it: 10 µM. The method, then:
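Thermal proteome profiling (TMT mass spectrometry) in intact DAOY medulloblastoma cells or DAOY lysates treated with 10 µM compound 7 or DMSO, heated at 10 temperatures from 40.5 to 73.8 °C for 3 min. Melting curves were fitted with the Bioconductor TPP package, and the melting point difference between compound and vehicle is reported per protein (single curve per condition).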

[1] abbreviates: system: intact DAOY cells, treatment time: 90 min, 37 °C.
Setting [2] is: system: DAOY cell lysate, treatment time: 20 min, 4 °C.

Turning to PALM (UniProt O75781), the melting temperature shift under setting [1] came to 0.667 °C.

For the target NUDT1 (UniProt P36639), the melting temperature shift by setting is: under setting [2], -0.6 °C; under setting [1], 0.302 °C.

Take PDHX (UniProt O00330): the melting temperature shift was 0.621 °C under setting [2] and 1.08 °C under setting [1].

In the case of EIF3F (UniProt O00303), the melting temperature shift is, setting by setting: under setting [2], -0.807 °C; under setting [1], 0.243 °C.

RAB6A (UniProt P20340): the melting temperature shift worked out at 1.85 °C under setting [2] and 0.0618 °C under setting [1].

Consider UniProt Q969M1, for which the melting temperature shift under setting [2] amounted to 0.372 °C.

On to UniProt Q96MH7, for which the melting temperature shift under setting [1] is -1.82 °C.

As to FAM129A (UniProt Q9BZQ8), the melting temperature shift is, setting by setting: under setting [2], 0.532 °C; under setting [1], 0.0635 °C.

As for UniProt Q9ULD0, the melting temperature shift under setting [1] is -0.0448 °C.

As for HERC4 (UniProt Q5GLZ8), the melting temperature shift was -0.339 °C under setting [2] and -0.537 °C under setting [1].

As for PPP2R2D (UniProt Q66LE6), the melting temperature shift stood at 0.0407 °C under setting [2] and 0.552 °C under setting [1].

For GANAB (UniProt Q14697), the melting temperature shift under setting [2] stood at 1.03 °C and the melting temperature shift under setting [1] came to 0.181 °C.

Take SNTB1 (UniProt Q13884): under setting [2], the melting temperature shift came out at 0.468 °C.

Turning to CCDC94 (UniProt Q9BW85), the melting temperature shift is, setting by setting: under setting [2], 0.858 °C; under setting [1], -0.678 °C.

For TBC1D10B (UniProt Q4KMP7), the melting temperature shift is, setting by setting: under setting [2], 2.06 °C; under setting [1], -2.22 °C.

On to UniProt O60318, for which the melting temperature shift under setting [2] stood at 2.72 °C.

Regarding DYNLL2 (UniProt Q96FJ2), the melting temperature shift under setting [2] is -1.4 °C.

For the target UniProt Q5U5Q3, the melting temperature shift under setting [2] came out at 3.83 °C.

Regarding UniProt Q14CS0, the melting temperature shift under setting [2] is 0.671 °C.

Turning to UniProt P24844, the melting temperature shift reads like this: under setting [2], -0.122 °C; under setting [1], -0.474 °C.

Consider CTTNBP2NL (UniProt Q9P2B4), for which the melting temperature shift is, setting by setting: under setting [2], -0.457 °C; under setting [1], 0.834 °C.

As for GCC1 (UniProt Q96CN9), the melting temperature shift is, setting by setting: under setting [2], -0.24 °C; under setting [1], -0.998 °C.

Regarding GLUD1 (UniProt P00367), the melting temperature shift reads like this: under setting [2], -0.0845 °C; under setting [1], -1.04 °C.

UniProt Q96LI5: under setting [2], the melting temperature shift is -2.02 °C.

Consider ORC3 (UniProt Q9UBD5), for which the melting temperature shift is, setting by setting: under setting [2], -1.09 °C; under setting [1], -1.89 °C.

As to UniProt Q9UHL9, the melting temperature shift under setting [1] is -0.419 °C.

As to STAG1 (UniProt Q8WVM7), the melting temperature shift is 0.909 °C under setting [2] and -0.938 °C under setting [1].

Regarding ATP5F1 (UniProt P24539), the melting temperature shift under setting [2] came out at 2.18 °C and the melting temperature shift under setting [1] is -2.29 °C.

Consider STRAP (UniProt Q9Y3F4), for which the melting temperature shift under setting [2] was -0.316 °C and the melting temperature shift under setting [1] worked out at 0.149 °C.

As for ZMYM3 (UniProt Q14202), under setting [2], the melting temperature shift turned out to be 0.212 °C.

Regarding OSGEPL1 (UniProt Q9H4B0), the melting temperature shift under setting [1] was 2.56 °C.

On to TMED4 (UniProt Q7Z7H5), for which the melting temperature shift runs as follows: under setting [2], 1.39 °C; under setting [1], -1.09 °C.

Turning to NSUN5 (UniProt Q96P11), the melting temperature shift was -0.0968 °C under setting [2] and -1.16 °C under setting [1].

Turning to CNOT2 (UniProt Q9NZN8), the melting temperature shift is, setting by setting: under setting [2], -0.433 °C; under setting [1], -1.02 °C.

In the case of UniProt P00352, the melting temperature shift under setting [1] was -0.087 °C.

With UniProt O43716, under setting [2], the melting temperature shift is 1.05 °C.

Consider HNRNPA2B1 (UniProt P22626), for which the melting temperature shift by setting is: under setting [2], 0.975 °C; under setting [1], -0.806 °C.

Regarding TRIM25 (UniProt Q14258), the melting temperature shift by setting is: under setting [2], -0.148 °C; under setting [1], -0.133 °C.

For IFI16 (UniProt Q16666), the melting temperature shift is 0.788 °C under setting [2] and -0.245 °C under setting [1].

(Values after the supplement of paper PMC10060354, “Discovery of a small molecule ligand of FRS2 that inhibits invasion and tumor growth” (Cellular Oncology, 2022).)
